Measurements as given in patent US20070185089A1, “Benzazepine derivatives for the treatment of neurological and psychiatric disorders” (Glaxo Group Limited, priority 2004, published 2007).
Values joined by “and” are separate entries in the source; they are usually repeats but may differ in a detail not shown here. Identical values can stand only once. Some results were stated once for a whole list of compounds, not compound by compound. For at least one compound, name, drawing or mass did not settle the structure.

The chains behind the UniProt entries cited, without tags or fusion partners. Where a name states a change or a piece, a line headed by the entry shows the natural chain unless it says otherwise.
UniProt Q9Y5N1: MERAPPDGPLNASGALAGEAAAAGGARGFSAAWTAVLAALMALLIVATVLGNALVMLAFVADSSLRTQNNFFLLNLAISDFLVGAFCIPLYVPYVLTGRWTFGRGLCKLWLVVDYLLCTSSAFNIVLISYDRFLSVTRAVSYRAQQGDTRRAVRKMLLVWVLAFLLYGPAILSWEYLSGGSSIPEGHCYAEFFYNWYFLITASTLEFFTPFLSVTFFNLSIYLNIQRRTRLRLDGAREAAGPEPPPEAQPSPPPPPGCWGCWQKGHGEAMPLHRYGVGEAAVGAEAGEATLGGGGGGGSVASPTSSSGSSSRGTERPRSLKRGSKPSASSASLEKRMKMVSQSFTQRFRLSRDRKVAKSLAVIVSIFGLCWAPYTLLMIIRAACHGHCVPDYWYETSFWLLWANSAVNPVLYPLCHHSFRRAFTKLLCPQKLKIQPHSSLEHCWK
UniProt P35367, whole entry: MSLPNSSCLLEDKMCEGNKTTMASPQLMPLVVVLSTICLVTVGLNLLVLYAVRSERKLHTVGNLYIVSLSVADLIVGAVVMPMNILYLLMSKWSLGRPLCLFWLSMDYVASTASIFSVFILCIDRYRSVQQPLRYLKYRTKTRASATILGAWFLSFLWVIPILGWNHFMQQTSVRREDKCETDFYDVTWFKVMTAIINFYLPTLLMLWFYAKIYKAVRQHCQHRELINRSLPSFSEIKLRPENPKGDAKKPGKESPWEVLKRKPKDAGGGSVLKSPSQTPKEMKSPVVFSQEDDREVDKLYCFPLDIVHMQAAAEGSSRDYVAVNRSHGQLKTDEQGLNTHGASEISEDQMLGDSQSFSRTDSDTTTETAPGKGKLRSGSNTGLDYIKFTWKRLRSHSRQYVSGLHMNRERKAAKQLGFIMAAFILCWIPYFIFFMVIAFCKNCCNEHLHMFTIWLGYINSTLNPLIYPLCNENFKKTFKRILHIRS

What was measured:
histamine H3 receptor = molecular target: T1, histamine H3 receptor (Homo sapiens, UniProt Q9Y5N1); test: Histamine H3 functional antagonist assay (method A), [35S]-GTPγS SPA on membranes; format: biochemical
T1 construct: expressed in transfected cells; host or cells: CHO K1 cells carrying pSwitch, transfected with pGeneH3; mifepristone-induced; clone 3H3; membranes

human H1 receptor = molecular target: T2, human H1 receptor (Homo sapiens, UniProt P35367); test: Histamine H1 functional antagonist assay (FLIPR, cell fluorescence); format: cell-based; settings: CHO cells expressing human H1 receptor, histamine at EC80
T2 construct: expressed in transfected cells

Row | SMILES | antagonism in the histamine H3 functional antagonist assay (method A) (histamine H3 receptor; histamine at EC80) | antagonism in the histamine H1 functional antagonist assay (human H1 receptor) | antagonism in the histamine H3 functional antagonist assay (method A) (histamine H3 receptor; histamine at EC80, trifluoroacetate salt)
1 | O=C(c1ccccn1)N1CCC(c2ccc3c(c2)CCN(C2CCC2)CC3)CC1 [Example E215, 3-cyclobutyl-7-[1-(2-pyridinylcarbonyl)-4-piperidinyl]-2,3,4,5-tetrahydro-1H-3-benzazepine] | > 9.0 pKb and > 6.5 pKb | < 6.3 pKb | 
2 | Cc1nn(C)c(C)c1S(=O)(=O)N1CCN(c2ccc3c(c2)CCN(C2CCCC2)CC3)CC1 [Example E33, 3-Cyclopentyl-7-{4-[(1,3,5-trimethyl-1H-pyrazol-4-yl)sulfonyl]-1-piperazinyl}-2,3,4,5-tetrahydro-1H-3-benzazepine] | > 6.5 pKb | < 6.3 pKb | 
3 | O=C(Nc1ccc(Cl)cc1)N1CCN(c2ccc3c(c2)CCN(C2CCC2)CC3)CC1 [Example E13, N-(4-Chlorophenyl)-4-(3-cyclobutyl-2,3,4,5-tetrahydro-1H-3-benzazepin-7-yl)-1-piperazinecarboxamide] | > 9.0 pKb and > 6.5 pKb | < 6.3 pKb | 
4 | N#Cc1ccc(C(=O)N2CCN(c3ccc4c(c3)CCN(C3CCC3)CC4)CC2)cc1 [Example E6, 4-{[4-(3-Cyclobutyl-2,3,4,5-tetrahydro-1H-3-benzazepin-7-yl)-1-piperazinyl]carbonyl}benzonitrile] | > 6.5 pKb and > 9.0 pKb | < 6.3 pKb | 
5 | FC(F)(F)c1ccc(N2CCC(c3ccc4c(c3)CCN(C3CCC3)CC4)CC2)cn1 [Example E222, 3-cyclobutyl-7-{1-[6-(trifluoromethyl)-3-pyridinyl]-4-piperidinyl}-2,3,4,5-tetrahydro-1H-3-benzazepine] | > 9.0 pKb and > 6.5 pKb | < 6.3 pKb | 
6 | O=C(c1ccc2nonc2c1)N1CCN(c2ccc3c(c2)CCN(C2CCC2)CC3)CC1 [Example E7, 7-[4-(2,1,3-Benzoxadiazol-5-ylcarbonyl)-1-piperazinyl]-3-cyclobutyl-2,3,4,5-tetrahydro-1H-3-benzazepine] | > 6.5 pKb and > 9.0 pKb | < 6.3 pKb | 
7 | O=C(c1cccc2nccnc12)N1CCC(c2ccc3c(c2)CCN(C2CCC2)CC3)CC1 [Example E219, 3-cyclobutyl-7-[1-(5-quinoxalinylcarbonyl)-4-piperidinyl]-2,3,4,5-tetrahydro-1H-3-benzazepine] | > 9.0 pKb and > 6.5 pKb | < 6.3 pKb | 
8 | O=C(O)C(F)(F)F.O=C(c1ccccc1Oc1ccccc1)N1CCN(c2ccc3c(c2)CCN(C2CCCC2)CC3)CC1 [Example E95, 3-Cyclopertyl-7-(4-{[2-(phenyloxy)phenyl]carbonyl}-1-piperazinyl)-2,3,4,5-tetrahydro-1H-3-benzazepine trifluoroacetate salt] | > 6.5 pKb | < 6.3 pKb | 
9 | CN1CCOc2cc(S(=O)(=O)N3CCN(c4ccc5c(c4)CCN(C4CCCC4)CC5)CC3)ccc21 [Example E22, 3-Cyclopentyl-7-{4-[(4-methyl-3,4-dihydro-2H-1,4-benzoxazin-7-yl)sulfonyl]-1-piperazinyl}-2,3,4,5-tetrahydro-1H-3-benzazepine] | > 6.5 pKb | < 6.3 pKb | 
10 | COc1ccccc1C(=O)N1CCN(c2ccc3c(c2)CCN(C2CCCC2)CC3)CC1.O=C(O)C(F)(F)F [Example E96, 3-Cyclopentyl-7-(4-{[2-(methyloxy)Phenyl]carbonyl}-1-Piperazinyl)-2,3,4,5-tetrahydro-1H-3-benzazepine trifluoroacetate salt] |  | < 6.3 pKb | > 9.0 pKb and > 6.5 pKb
11 | O=C(O)C(F)(F)F.O=C(c1c[nH]c2ccccc12)N1CCN(c2ccc3c(c2)CCN(C2CCCC2)CC3)CC1 [Example E94, 3-Cyclopentyl-7-[4-(1H-indol-3-ylcarbonyl)-1-piperazinyl]-2,3,4,5-tetrahydro-1H-3-benzazepine trifluoroacetate salt] | > 6.5 pKb | < 6.3 pKb | 
12 | O=C(O)C(F)(F)F.O=C(c1ccc(Cc2ccccc2)o1)N1CCN(c2ccc3c(c2)CCN(C2CCCC2)CC3)CC1 [Example E129, 3-Cyclopentyl-7-(4-{[5-(phenylmethyl)-2-furanyl]carbonyl}-1-piperazinyl)-2,3,4,5-tetrahydro-1H-3-benzazepine trifluoroacetate salt] | > 6.5 pKb | < 6.3 pKb | 
13 | COc1ccc(S(=O)(=O)N2CCN(c3ccc4c(c3)CCN(C3CCCC3)CC4)CC2)cc1 [Example E27, 3-Cyclopentyl-7-(4-{[4-(methyloxy)Phenyl]sulfonyl}-1-piperazinyl)-2,3,4,5-tetrahydro-1H-3-benzazepine] | > 6.5 pKb | < 6.3 pKb | 
14 | N#Cc1ccc(C(=O)N2CCC(c3ccc4c(c3)CCN(C3CCCCC3)CC4)CC2)cc1 [Example E235, 4-{[4-(3-cyclohexyl-2,3,4,5-tetrahydro-1H-3-benzazepin-7-yl)-1-piperidinyl]carbonyl}benzonitrile] | > 6.5 pKb | < 6.3 pKb | 
15 | O=S(=O)(c1ccc(Cl)s1)N1CCN(c2ccc3c(c2)CCN(C2CCCC2)CC3)CC1 [Example E60, 7-{4-[(5-Chloro-2-thienyl)sulfonyl]-1-piperazinyl}-3-cyclopentyl-2,3,4,5-tetrahydro-1H-3-benzazepine] | > 6.5 pKb | < 6.3 pKb | 
16 | O=C(c1cscn1)N1CCC(c2ccc3c(c2)CCN(C2CCC2)CC3)CC1 [Example E213, 3-cyclobutyl-7-[1-(1,3-thiazol-4-ylcarbonyl)-4-piperidinyl]-2,3,4,5-tetrahydro-1H-3-benzazepine] | > 9.0 pKb and > 6.5 pKb | < 6.3 pKb | 
17 | CC1CCCC1N1CCc2ccc(C3CCN(C(=O)c4ccc(C#N)cc4)CC3)cc2CC1 (centres unmarked) [Example E234, 4-({4-[3-(2-methylcyclopentyl)-2,3,4,5-tetrahydro-1H-3-benzazepin-7-yl]-1-piperidinyl}carbonyl)benzonitrile] | > 9.0 pKb and > 6.5 pKb | < 6.3 pKb | 
18 | O=C(O)C(F)(F)F.O=C(c1ccccc1)c1cccc(C(=O)N2CCN(c3ccc4c(c3)CCN(C3CCCC3)CC4)CC2)c1 [Example E102, (3-{[4-(3-Cyclopentyl-2,3,4,5-tetrahydro-1H-3-benzazepin-7-yl)-1-piperazinyl]carbonyl}phenyl)(phenyl)methanone trifluoroacetate salt] | > 6.5 pKb | < 6.3 pKb | 
19 | O=S(=O)(c1ccc(Oc2ccccc2)cc1)N1CCN(c2ccc3c(c2)CCN(C2CCCC2)CC3)CC1 [Example E23, 3-Cyclopentyl-7-(4-{[4-(phenyloxy)phenyl]sulfonyl}-1-piperazinyl)-2,3,4,5-tetrahydro-1H-3-benzazepine] | > 6.5 pKb | < 6.3 pKb | 
20 | CCC(=O)c1ccc(C(=O)N2CCN(c3ccc4c(c3)CCN(C3CCC3)CC4)CC2)cc1 [Example E16, 1-(4-{[4-(3-Cyclobutyl-2,3,4,5-tetrahydro-1H-3-benzazepin-7-yl)-1-piperazinyl]carbonyl}phenyl)-1-propanone] | > 9.0 pKb and > 6.5 pKb | < 6.3 pKb | 
21 | Cc1cccc(CCS(=O)(=O)N2CCN(c3ccc4c(c3)CCN(C3CCCC3)CC4)CC2)c1 [Example E88, 3-Cyclopentyl-7-(4-{[2-(3-methylphenyl)ethyl]sulfonyl}-1-piperazinyl)-2,3,4,5-tetrahydro-1H-3-benzazepine] | > 6.5 pKb | < 6.3 pKb | 
22 | Cc1nc(C(=O)N2CCN(c3ccc4c(c3)CCN(C3CCC3)CC4)CC2)c(-c2ccccc2)s1 [Example E18, 3-Cyclobutyl-7-{4-[(2-methyl-5-phenyl-1,3-thiazol-4-yl)carbonyl]-1-piperazinyl}-2,3,4,5-tetrahydro-1H-3-benzazepine] | > 9.0 pKb and > 6.5 pKb | < 6.3 pKb | 
23 | O=C(O)C(F)(F)F.O=C(c1nc2ccccc2s1)N1CCN(c2ccc3c(c2)CCN(C2CCCC2)CC3)CC1 [Example E155, 7-[4-(1,3-Benzothiazol-2-ylcarbonyl)-1-piperazinyl]-3-cyclopentyl-2,3,4,5-tetrahydro-1H-3-benzazepine trifluoroacetate salt] | > 6.5 pKb | < 6.3 pKb | 
24 | O=S(=O)(c1cccs1)N1CCN(c2ccc3c(c2)CCN(C2CCCC2)CC3)CC1 [Example E20, 3-Cyclopentyl-7-[4-(2-thienylsulfonyl)-1-piperazinyl]-2,3,4,5-tetrahydro-1H-3-benzazepine] | > 6.5 pKb | < 6.3 pKb | 
25 | O=C(c1ccccc1F)N1CCC(c2ccc3c(c2)CCN(C2CCC2)CC3)CC1 [Example E214, 3-cyclobutyl-7-{1-[(2-fluorophenyl)carbonyl]-4-piperidinyl}-2,3,4,5-tetrahydro-1H-3-benzazepine] | > 9.0 pKb and > 6.5 pKb | < 6.3 pKb | 
